# From article PMC11872507, “Lasso peptides sviceucin and siamycin I exhibit anti-virulence activity and restore vancomycin effectiveness in vancomycin-resistant pathogens” (iScience, 2025)
# No constants are given. Whether binding was seen depends on the method and setting. Where a sequence is shown, tags or fusion partners need not be part of it.
# T1: C-His6-VanS^127-384 (UniProt Q06240)
# T1 sequence: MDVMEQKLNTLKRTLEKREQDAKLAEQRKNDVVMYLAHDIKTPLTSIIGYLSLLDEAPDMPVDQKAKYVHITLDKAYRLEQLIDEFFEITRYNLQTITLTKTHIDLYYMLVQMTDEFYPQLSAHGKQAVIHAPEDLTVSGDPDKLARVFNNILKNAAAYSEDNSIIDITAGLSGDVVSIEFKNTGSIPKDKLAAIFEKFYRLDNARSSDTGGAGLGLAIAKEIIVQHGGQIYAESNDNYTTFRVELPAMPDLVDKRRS
# B1: microcin J25 (peptide, UniProt Q9X2V7 38-58)
# peptide: GGAGHVPEYFVGIGTPISFYG
# modifications: lasso peptide (N-terminal macrolactam ring)
# Molecular target: T1, C-His6-VanS^127-384
# Test: differential scanning fluorimetry; 10 μM VanS, SYPRO Orange, 20 mM potassium phosphate buffer pH 7.5; lasso peptides at siamycin I 6 to 90 μM, sviceucin 12 to 180 μM, microcin J25 25 to 200 μM; Kd from the change of the melting temperature, simple cooperative model; both purified
binder,measurement,value
B1,binding,no binding (tested: 25 to 200 μM)
